# Data as given in PubChem BioAssay AID2685 (National Center for Advancing Translational Sciences (NCATS), 2010).
# This is one part of the list. Shown are side measurements of this screen, not its main read-out; they come without a call. The list favours compounds with an active or inconclusive main result. The note in brackets gives the kind of curve behind each potency; many fits are weak.
# Experiment: qHTS Assay for Lipid Storage Modulators in Drosophila S3 Cells;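 for cell number change: cells counted by Cell Tracker Red CMTPX staining in the red channel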
# Conditions: BODIPY lipid droplet fluorescence, 18-24 h; for cell number change: measured here: cell count max response, cells fed with added oleic acid
# Method in brief: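 Drosophila S3 cells loaded with oleic acid (400 uM, as added) and compounds at several concentrations; lipid droplets imaged by 488-nm laser-scanning cytometry, 500–530 nm intensity and object ratio to cell channel. Percent activity normalized to 20 uM Triacsin C.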
# [1] = measured here: lipid fluorescence (Fed channel) AC50, cells fed with added oleic acid
# [2] = measured here: cell number channel AC50, cells fed with added oleic acid
SMILES,cell number change [%],AC50 [1],AC50 [2]
Cc1ccc(C)c(OCCC(=O)Nc2cccc(S(=O)(=O)NC3=NCCCCC3)c2)c1,-16.5,"32.6 µM [falling, single point]",–
Cc1ccc(-n2nc3c(=O)n(CCCC(=O)NCc4cccc(Cl)c4)nc(C)c3c2C)cc1,-17.6,"0.92 µM [rising, full curve]",–
CC1=NN(c2ccc(Br)cc2)C(=O)/C1=C/c1ccc(-c2ccccc2C(=O)O)o1,15.5,"6.51 µM [falling, single point]",–
Cc1cc(NC(=O)c2ccccc2Cl)c(C(C)C)cc1O,-8.92,"0.00411 µM [falling, full curve, poor fit]",–
O=C(O)c1cccc(OCCN2CCCC2=O)c1,-17.4,"6.51 µM [falling, single point]",–
COCCN(Cc1ccccc1)C(=O)c1cccc(S(=O)(=O)N2CCCc3ccccc32)c1,4.67,"1.03 µM [falling, full curve]",–
O=C(c1ccc([N+](=O)[O-])o1)N1CCc2ccccc21,13.6,"0.206 µM [falling, full curve, poor fit]",–
COc1ccc(OC)c(-c2csc(CCn3nc(C)cc3C)n2)c1,62,"29.1 µM [rising, partial curve, poor fit]","11.6 µM [rising, partial curve]"
CC1CCCCN1c1ncnc(N)c1[N+](=O)[O-] (stereo not given),13.1,–,–
O=C1CCC(/C=C/c2ccccc2)=NN1Cc1ccccc1,-28,–,"0.058 µM [rising, partial curve, poor fit]"
CCOC(=O)CSc1ccc(C(=O)Nc2ccc(OC)cc2)cn1,23.7,"4.11 µM [falling, single point]","3.26 µM [falling, single point]"
COc1cc(/C=N/NC(=O)c2ccncc2)ccc1OCC(=O)Nc1ccccc1,5.04,"6.51 µM [falling, single point]",–
CCC(=O)Nc1c(C(=O)Nc2cccc(OC)c2)oc2ccccc12,-6.99,"32.6 µM [falling, single point]",–
Cc1cccc(CN2CCc3c([nH]c4ccccc34)C2CC(C)C)n1 (stereo not given),-18.1,"10.3 µM [falling, partial curve]",–
CC1SC(C)C(=O)N(CC(=O)Nc2ccc([N+](=O)[O-])cc2)C1=O (stereo not given),14.5,"6.51 µM [falling, single point]","6.51 µM [falling, single point]"
O=C(/C=C/c1ccc2c(c1)OCO2)Nc1ccc(Cl)cn1,–,"0.184 µM [rising, full curve, poor fit]","0.184 µM [rising, full curve, poor fit]"
COc1ccc(O)c(C(=O)c2cnc3c(c2)CN(C)C(=O)N3)c1,80.4,"29.1 µM [rising, single point]",–
COCCN(Cc1cc2cc3c(cc2[nH]c1=O)OCO3)C(=O)c1cccs1,17.3,"0.00651 µM [rising, full curve, poor fit]",–
CC1(C)CC(c2nc(-c3ccc([N+](=O)[O-])cc3)cs2)CCO1 (stereo not given),-3.95,"4.61 µM [falling, single point]",–

SMILES,cell number change [%],AC50 [1],AC50 [2]
Cc1cc(NC(=O)c2ccc(N3CCCC3)c([N+](=O)[O-])c2)no1,39.2,–,"14.6 µM [rising, single point]"
Cc1nn(CC(O)Cn2c3c(c4ccccc42)CCN(C)C3=O)c(C)c1Br (stereo not given),-19.9,–,–
COCCn1c(SCC(=O)N2CCc3ccccc3C2)nc2cc(Cl)ccc2c1=O,5.88,"6.51 µM [falling, single point]",–
CC1CCc2[nH]c3ccc(C(=O)N4CCCC(C(F)(F)F)C4)cc3c2C1 (stereo not given),–,–,"1.46 µM [rising, partial curve]"
Cc1cc(F)ccc1NCC(=O)Nc1ccc(Br)cc1C,-28.7,"5.8 µM [falling, full curve]",–
S=c1nccc(-c2cccs2)[nH]1,12,–,"0.731 µM [rising, full curve, poor fit]"
CN(C)C(=O)c1ccc(-c2cc(C(F)(F)F)n(C)n2)s1,11.8,"1.84 µM [rising, partial curve, poor fit]",–
COc1ccccc1N(C(=O)c1cncc(Br)c1)c1nc(-c2ccc(C)cc2)cs1,-6.71,"0.259 µM [rising, full curve, poor fit]",–
CCOC(=O)CCNCc1ccc(OC)c(OC)c1,-7.6,–,–
O=C(COC(=O)c1cccs1)Nc1cccc(S(=O)(=O)NC2=NCCCCC2)c1,34.9,–,"7.31 µM [rising, partial curve, poor fit]"
Cc1sc2ncnc(NCCCN3CCCC3=O)c2c1C,-0.611,"29.1 µM [rising, partial curve, poor fit]",–
O=C(N1CCCC1)N1CCN(c2ncnc3c(-c4ccc(Cl)cc4)nsc23)CC1,-1.09,–,–
COc1cccc(C(=O)Nc2ccccc2-c2ccccc2)c1,-38.7,"14.6 µM [falling, single point]","29.1 µM [falling, single point]"
COC(=O)C1=C(N)Oc2cc(C)n(CCN3CCOCC3)c(=O)c2C1c1cccnc1 (stereo not given),2.14,–,–
Oc1cccc(/C=N/Nc2ncnc3c2ncn3Cc2ccccc2)c1,27.7,"0.231 µM [falling, full curve, poor fit]",–
Cc1cccc(NC(=S)N(CCCN2CCOCC2)Cc2ccccn2)c1,2.73,"16.4 µM [rising, partial curve, poor fit]",–
C=CCn1c(SCc2c(C(=O)OC)sc(N)c2C(=O)OC)nnc1-c1ccc(Cl)cc1,41.5,"2.31 µM [rising, partial curve, poor fit]","0.146 µM [rising, full curve, poor fit]"
O=C(Nc1cccnc1)c1cc2c(ccc3ccccc32)o1,-32.5,"6.51 µM [rising, single point]","16.4 µM [falling, partial curve]"
Cc1ccc2nc(C(O)C(O)c3nc4ccc(C)cc4[nH]3)[nH]c2c1 (stereo not given),-41.1,–,"18.4 µM [falling, partial curve]"

SMILES,cell number change [%],AC50 [1],AC50 [2]
Cc1cccc(CN2CCN(C3CCCC3)C(CCO)C2)n1 (stereo not given),-13.9,"4.11 µM [falling, full curve, poor fit]","7.31 µM [falling, single point]"
C=CCNC(=S)N1CCC(C(=O)c2ccc3c(c2)OCCO3)CC1,7.59,"0.326 µM [rising, partial curve, poor fit]",–
O=C(Nc1ccc2c(c1)OCO2)c1ccc(Cl)c(S(=O)(=O)N2CCOCC2)c1,10.4,"29.1 µM [rising, single point]","6.51 µM [rising, single point]"
CCN(CC)S(=O)(=O)c1ccc(N2CCN(C)CC2)c(NC(=O)c2cc(=O)c3ccccc3o2)c1,-12.4,–,–
COc1cc(-c2nc(-c3ccncc3)no2)cc(OC)c1OC,–,"0.259 µM [rising, partial curve, poor fit]",–
CCN(CC)S(=O)(=O)c1cc(NC(=O)[C@@H](NC(N)=O)C(C)C)ccc1C,90.1,"20.6 µM [rising, single point]","29.1 µM [rising, single point]"
FC(F)(F)c1cc(-c2ccco2)nc2ncnn12,10.9,"0.00461 µM [falling, full curve, poor fit]",–
S=C(NCc1ccc(Cl)cc1)Nc1ccccc1,24.2,"5.8 µM [rising, partial curve, poor fit]",–
O=C(/C=C/c1ccc(Cl)cc1)c1cccnc1,–,"5.8 µM [falling, partial curve]",–
CCN1CCN(C(=O)CN(Cc2ccccc2)S(C)(=O)=O)CC1,5.12,"0.231 µM [falling, full curve, poor fit]",–
Cn1cccc1/C=N/NC(=O)c1cc(-c2cccs2)nc2ccccc12,0.804,"0.651 µM [rising, full curve, poor fit]","0.92 µM [rising, full curve, poor fit]"
CNC(=O)CCC(=O)Nc1ccc(C)cc1,5.57,"6.51 µM [falling, single point]",–
COc1ccc(NC(=O)CN(C)C(=O)c2cc(-c3ccco3)nc3ccccc23)cc1,-18.9,"2.31 µM [falling, partial curve, poor fit]",–
Cc1cccc(C(C)(C)C)c1OCCCCN1CCCC1,-32.5,"29.1 µM [falling, single point]","29.1 µM [falling, single point]"
COc1ccc(C)cc1NC(=O)CSc1nnnn1Cc1ccccc1,–,–,"2.59 µM [rising, partial curve]"
CCOc1ccc(-c2c(C(=O)N/N=C/C3CCCCC3)nnn2-c2nonc2N)cc1,-2.09,"20.6 µM [rising, single point]",–
CC1CCN(c2nc3c(=O)[nH]c(N)nc3n2[C@@H]2O[C@H](CO)[C@@H](O)[C@H]2O)CC1,8.5,–,–
CCCc1cc(=O)oc2cc(OC(C)C(=O)NC3CC(C)(C)NC(C)(C)C3)ccc12 (stereo not given),43.2,"29.1 µM [rising, single point]","10.3 µM [rising, partial curve, poor fit]"
O=C(Nc1ccc2c(c1)N(S(=O)(=O)c1cccs1)CCC2)c1c(F)cccc1Cl,14.4,"13 µM [rising, partial curve]",–

# Whole records, looked up by structure. Order of values: cell number change [%]	AC50 [1]	AC50 [2]
# `Oc1cccc(/C=N/Nc2ncnc3c2ncn3Cc2ccccc2)c1` as listed: 27.7	0.231 µM [falling, full curve, poor fit]	–
# `O=C(O)c1cccc(OCCN2CCCC2=O)c1` as listed: -17.4	6.51 µM [falling, single point]	–
# `O=C(c1ccc([N+](=O)[O-])o1)N1CCc2ccccc21` as listed: 13.6	0.206 µM [falling, full curve, poor fit]	–
# `COc1cccc(C(=O)Nc2ccccc2-c2ccccc2)c1` as listed: -38.7	14.6 µM [falling, single point]	29.1 µM [falling, single point]
